Experimental data as given in article PMC11236118.
No constants are given. Whether binding was seen depends on the method and setting. Some binding calls cover weakened binding; strength is not graded here.

Chains of the proteins cited; added tags and fusions are not shown. Residues count along the entry.
UniProt Q29443, residues 20-704: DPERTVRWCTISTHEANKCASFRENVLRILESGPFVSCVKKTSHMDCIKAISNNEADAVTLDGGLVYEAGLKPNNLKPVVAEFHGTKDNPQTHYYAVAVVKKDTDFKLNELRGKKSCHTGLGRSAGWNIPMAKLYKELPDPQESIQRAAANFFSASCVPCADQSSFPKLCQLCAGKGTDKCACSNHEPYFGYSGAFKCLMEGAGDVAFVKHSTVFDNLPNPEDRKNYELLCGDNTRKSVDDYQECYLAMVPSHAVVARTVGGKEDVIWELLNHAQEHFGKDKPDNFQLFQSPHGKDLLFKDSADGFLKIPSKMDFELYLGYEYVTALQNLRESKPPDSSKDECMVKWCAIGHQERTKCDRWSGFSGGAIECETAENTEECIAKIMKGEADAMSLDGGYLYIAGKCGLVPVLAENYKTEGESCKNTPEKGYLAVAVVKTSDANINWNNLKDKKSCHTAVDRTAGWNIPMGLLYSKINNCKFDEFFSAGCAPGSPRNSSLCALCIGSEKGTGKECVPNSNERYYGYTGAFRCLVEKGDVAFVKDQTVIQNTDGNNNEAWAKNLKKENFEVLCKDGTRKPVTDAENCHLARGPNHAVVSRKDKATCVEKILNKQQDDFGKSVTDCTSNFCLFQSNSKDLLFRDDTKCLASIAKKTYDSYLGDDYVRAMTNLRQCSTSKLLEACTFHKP

Key:
Assay in all cases: binding of FITC-holotransferrin to cells, fluorescence measured after Pronase digestion; 10^8 washed cells with 100 ug FITC-holotransferrin (bovine) in TDB on ice for 15 minutes, washed; read out as sites/cell; only the binder purified
[1] = target: Transferrin receptor (ESAG6/ESAG7) on TbGT11^-/- (TbGnTI) null mutant cells (Trypanosoma brucei brucei (endogenous in bloodstream form mutant cells)) (UniProt Q8WPU1)
[2] = target: Transferrin receptor (ESAG6/ESAG7) on TbGT10^-/- null mutant cells (Trypanosoma brucei brucei (endogenous in bloodstream form mutant cells)) (UniProt Q8WPU1)
[3] = target: Transferrin receptor (ESAG6/ESAG7) on TbGT15^-/- (TbGnTII) null mutant cells (Trypanosoma brucei brucei (endogenous in bloodstream form mutant cells)) (UniProt Q8WPU1)

Measured: binding

FITC-holotransferrin (bovine) (from UniProt Q29443 20-704) (ligand)
binds: [1] | [2] | [3]
